Experimental data published in patent US20040138302A1, “Antifungal antibiotics” (Wyeth Holdings Corporation, priority 2002, published 2004).
≈ marks a conversion by molar mass, not a printed value.

Test system: Aspergillus fumigatus
Experiment: Broth microdilution antifungal MIC (NCCLS)
Assay type: cell-based
Settings: Aspergillus fumigatus S-430; RPMI-1640, 35° C., 72 hours
Protocol: The antifungal activity of Hygroscopene A is determined by a broth microdilution method as recommended by the National Committee for Clinical Laboratory Standard (NCCLS) (1, 2). Sterile, disposable, multiwell plates (96 U-shaped wells) containing serial dilutions of Hygroscopene A and a control drug (Amphotericin B) are prepared in a 100 μl volume with RPMI-1640 broth supplemented with 0.2% sodium bicarbonate and […] [3-(N-morpholino) propanesulfonic acid] buffer. RPMI-1640 is a completely synthetic medium that supports the growth of most fungi. Antimicrobial agent concentrations ranged from 0.06-64 μg/ml. Five colonies from 24-hour old yeast culture or 48-hour old filamentous fungi culture were suspended in 0.85% saline. The suspensions are diluted in RPMI-1640 broth and inoculated in to plates (100 μl/well) containing antimicrobial agents. The final inocula of yeast or fungi are 0.5-2.5×10^3 CFU/ml and 0.4×10^4-5×10^4 CFU/ml respectively. Plates are incubated at 35° C. for 24-72 hours in ambient air. Hygroscopene A is tested against a panel of pathogenic yeast and filamentous fungi, which consisted of Candida sp. and Aspergillus sp. […] The MIC values for yeast are determined after 24-48 hours of incubation. For filamentous fungi, the MIC is determined after 72 hours of incubation.

MIC: 0.25 µg/mL (≈ 0.271 µM)
Compound: C[C@@H]1[C@H](O)[C@@H](C)/C=C/C=C/C=C/C=C/C=C/C=C/C=C/[C@H](O[C@@H]2O[C@H](C)[C@@H](O)[C@H](N)[C@@H]2O)C[C@@H]2O[C@](O)(C[C@@H](O)C[C@@H](O)[C@H](O)CC[C@@H](O)C[C@@H](O)CC(=O)O[C@H]1C)C[C@H](O)[C@H]2C(=O)O [Amphotericin B, reference compound]
